Test results: patent publication US10363252B2, “Treatment of prostate cancer using hedgehog pathway inhibitors” (HEDGEPATH PHARMACEUTICALS, INC., priority 2013, dated 2019)
At least one compound was matched to its structure with a doubt left.

Legend:
[1] = system: murine prostate cancer xenograft; conditions: murine prostate cancer xenograft models; cited from earlier work
[2] = system: metastatic prostate cancer; test: non-comparative, randomized, phase II study of two doses of oral itraconazole in men with metastatic prostate cancer (retrospective PSA analysis); assay type: in vivo, human

CCC(C)n1ncn(-c2ccc(N3CCN(c4ccc(OCC5COC(Cn6cncn6)(c6ccc(Cl)cc6Cl)O5)cc4)CC3)cc2)c1=O (stereo not drawn) [itraconazole]
tumor growth [1]: delays tumor growth | high risk patients demonstrating PSA increases of <25% at 4 weeks ([2]; high risk patients (PSA doubling times of less than 6 months), 4 weeks): 14 of 15 | Progression Free Survival ([2]; high-dose itraconazole, high risk patients with PSA increases of <25% at 4 weeks): significant improvements
